# Measured values as given in publication PMC7819943, “Rice protein-binding microarrays: a tool to detect cis-acting elements near promoter regions in rice”.
# Protein sequences, listed by entry. Tags and fused reporters are not part of them.
# UniProt Q0JBA9, entry or part of it: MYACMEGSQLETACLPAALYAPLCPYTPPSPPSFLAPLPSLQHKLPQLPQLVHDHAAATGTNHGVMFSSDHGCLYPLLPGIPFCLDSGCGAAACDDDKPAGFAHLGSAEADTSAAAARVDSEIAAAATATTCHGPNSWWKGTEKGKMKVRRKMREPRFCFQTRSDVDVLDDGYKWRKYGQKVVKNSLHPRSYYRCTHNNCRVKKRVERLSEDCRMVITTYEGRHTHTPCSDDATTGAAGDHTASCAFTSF
# The list shows a part of the results.
# Target: OsWRKY34 (Oryza sativa, UniProt Q0JBA9 1-250)
# Assay: protein-binding microarray (RPBM); PBS, 2% BSA, 51.3 ng/ul salmon testes DNA, 50 uM zinc acetate, 200 nM TF, 25 C, 1 h; high values mean tight binding
# Settings: protein: recombinant; tags: N-terminal polyhistidine and DsRed monomer fusion (pET32a); label: CyDye5-dUTP incorporated in the synthesized complementary strand; 3' TTTTT single-stranded linker to array surface; dsDNA, one strand shown
# In short: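 The binding signal is fluorescence intensity per feature, in arbitrary units, read on an Axon 4000B scanner. Polyhistidine- and DsRed-tagged transcription factors (N-terminal fusions) from E. coli BL21-CodonPlus were purified on Ni–NTA and applied at 200 nM for 1 h at 25 °C to a double-stranded, BSA-blocked custom Agilent array in buffer with 50 µM zinc acetate.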
row,Sequence,binding signal
1,CACGTACACGCCTCTTTCCTTTACTCTTCTTCTTCTTTCTCGGAGTCACCTAGTGCAG,10300 fluorescence intensity (a.u.)
2,ATTTTCTGTTCCAACTTTTTTTACGGGATTTTCCGATCCGCGGAGTCACCTAGTGCAG,8090 fluorescence intensity (a.u.)
3,TTTTGATTTTATTGTCTAGTACCTCTCTTCAACGTATAGCCGGAGTCACCTAGTGCAG,8040 fluorescence intensity (a.u.)
4,CCGGGCGAGCCGGTCATGTTTGACTCCACACTTGCGCACTCGGAGTCACCTAGTGCAG,9770 fluorescence intensity (a.u.)
5,GGCTGCCCGCTCCTACATCCACATGCATGCTTCACACTGCCGGAGTCACCTAGTGCAG,8330 fluorescence intensity (a.u.)
6,TTTTTCTGGTAGTCTTCTCTTCATCTTTCTTTTTTTGGCTCGGAGTCACCTAGTGCAG,11400 fluorescence intensity (a.u.)
7,TTTTGTGAATGTTACTATTTCTGTATCCTGTTTTGTTTTCCGGAGTCACCTAGTGCAG,11400 fluorescence intensity (a.u.)
8,ACCTTCTTGCAACTTGGCTGCATTACTTTGACAAAGTTTTCGGAGTCACCTAGTGCAG,10400 fluorescence intensity (a.u.)
9,CCCCAACGCACTCTTCCCCGCCGCCGTTTCTGCCTCACTTCGGAGTCACCTAGTGCAG,13900 fluorescence intensity (a.u.)
10,ATTGCATAACGAACTCTACATGACTGTTTTCCATTTAACTCGGAGTCACCTAGTGCAG,10400 fluorescence intensity (a.u.)
11,ACCCTGGGAGGCTCTAACCCATTCCTGAATTTTCCATCTTCGGAGTCACCTAGTGCAG,8400 fluorescence intensity (a.u.)
12,CGAATGCCATCGCCATTGCCTGCCTGCCACCATTGACCGCCGGAGTCACCTAGTGCAG,11100 fluorescence intensity (a.u.)
13,GAATCACTATCACTTTAGTCTTAGTAGCTACATATATAAACGGAGTCACCTAGTGCAG,8140 fluorescence intensity (a.u.)
14,CGTCCGTCCGCGCCTCGCTCTACCCGCACTCCTACGGCGGCGGAGTCACCTAGTGCAG,8380 fluorescence intensity (a.u.)
15,CCTTGCCACCCCTACCGGATCCTGGTGTTGTTGGTTCGATCGGAGTCACCTAGTGCAG,10200 fluorescence intensity (a.u.)
16,CTTGTCCACCAGCTGCCGAATCACCACCACCATCACAACCCGGAGTCACCTAGTGCAG,8120 fluorescence intensity (a.u.)
17,GCCGTCCGCCATCGCTGCTGACCGCAGCATCCGCAGCCACCGGAGTCACCTAGTGCAG,11900 fluorescence intensity (a.u.)
18,TTCAACGTGGTGATTCATTCTCTTCTTTCATGTAATGAAACGGAGTCACCTAGTGCAG,8610 fluorescence intensity (a.u.)
19,CGAGCTGCTGATGGCCCCTATGCCACATCTACTATGCATGCGGAGTCACCTAGTGCAG,17100 fluorescence intensity (a.u.)
20,CCCATTTGCCATGTCAACGCACCGTACTAATTAATCCTTGCGGAGTCACCTAGTGCAG,10200 fluorescence intensity (a.u.)
21,TTCCTTTGCTTTCCTATTCTTTAATTAGCCGCGGCCTTCCCGGAGTCACCTAGTGCAG,10600 fluorescence intensity (a.u.)
22,TAATTTTCGTCCTTTGCACTGTTCATCTTCAACCTCTGGACGGAGTCACCTAGTGCAG,9950 fluorescence intensity (a.u.)
23,CTGAAACCAACATCCAAGTCATCATGTCCAAGATGTCTCCCGGAGTCACCTAGTGCAG,8510 fluorescence intensity (a.u.)
24,ACTCAAAACATAATTTTTATTGCTAGTCTTTTCTTCTTCTCGGAGTCACCTAGTGCAG,9670 fluorescence intensity (a.u.)
25,GCTGTGATTTTTTTTCTTTCTCACCAGAACAAATCTGGTACGGAGTCACCTAGTGCAG,8740 fluorescence intensity (a.u.)
26,TTGGTGAGTAGTGGTCGGGTGGGTCCCATTTTTTGCGTGCCGGAGTCACCTAGTGCAG,10300 fluorescence intensity (a.u.)
27,CCCCGGGTAACCTAAAAACCTCAGCTTCCATACCGTTTCCCGGAGTCACCTAGTGCAG,9600 fluorescence intensity (a.u.)

row,Sequence,binding signal
1,TCTGGTCTCGCGTCCCATCTCCGATCTCACTTTGCCTCTCCGGAGTCACCTAGTGCAG,11800 fluorescence intensity (a.u.)
2,AATTCTGAAGAATATCTCTTCTTGGCTTATATTTTCCAGTCGGAGTCACCTAGTGCAG,8330 fluorescence intensity (a.u.)
3,ATTTTGTTAGACTGGGGATGAGGTTAATTTTTTTCTTGGTCGGAGTCACCTAGTGCAG,10900 fluorescence intensity (a.u.)
4,TTATTTTTTTTGTCACACTGCACTCACTGGCTGCACGTCACGGAGTCACCTAGTGCAG,10100 fluorescence intensity (a.u.)
5,TACGACTTGTTTATCGCCAATTATCGGCATATCTCTTTTTCGGAGTCACCTAGTGCAG,12500 fluorescence intensity (a.u.)
6,AGTGCGTGGGTTGACGATTTTGCGAAAAAGCCCTCCGGTTCGGAGTCACCTAGTGCAG,8420 fluorescence intensity (a.u.)
7,AGTTCATTAGTCCTCTTTGTTTCTATGCTTGAACATATTACGGAGTCACCTAGTGCAG,10900 fluorescence intensity (a.u.)
8,CTCAACTCGGGATGACATTTGGGGTGTTTTTTTTTTGCAACGGAGTCACCTAGTGCAG,9820 fluorescence intensity (a.u.)
9,TCGGTTTTTCTCCGCGGCGCTTTCACCGCTCTCTCTCTCTCGGAGTCACCTAGTGCAG,8490 fluorescence intensity (a.u.)
10,CGGCACCACGCCTTTCTCGTCTCGTCTCGTCTCGTCTCATCGGAGTCACCTAGTGCAG,9020 fluorescence intensity (a.u.)
11,TTGTTGATTTGTGCCAGTTTTCTCCTATTTCAGTTAGTAGCGGAGTCACCTAGTGCAG,11400 fluorescence intensity (a.u.)
12,GCCAGCGACACCGCCGCCATCGTTCCCCACCGCCGCCATCCGGAGTCACCTAGTGCAG,13700 fluorescence intensity (a.u.)
13,CACCCGCCTCGTTCGCTTCCATCCTCTCCGCAGTCCGCACCGGAGTCACCTAGTGCAG,8870 fluorescence intensity (a.u.)
14,ACCATTAACTTTTTCTTAATTCGTTTCACTATTTTTTTAACGGAGTCACCTAGTGCAG,9500 fluorescence intensity (a.u.)
15,AACCGGAGTCGCCCATGTCCATTTTAGGCTAAACAACTGACGGAGTCACCTAGTGCAG,10300 fluorescence intensity (a.u.)
16,CGTAATTTTTCCCACCAAATTTACCCTTTTACCTTTTTACCGGAGTCACCTAGTGCAG,8620 fluorescence intensity (a.u.)
17,CAGTGGCGGATCCACCTCCCGGGCAGGTCGGGCGGCCGCCCGGAGTCACCTAGTGCAG,8300 fluorescence intensity (a.u.)
18,GAAGTGGGTTTTCTTCTAGGACGGAGGGTGTACTTGACTACGGAGTCACCTAGTGCAG,8390 fluorescence intensity (a.u.)
19,AACCTCTCGCGATCTGCCTCGATCCCTTCTACTCCTACTCCGGAGTCACCTAGTGCAG,10100 fluorescence intensity (a.u.)
20,CGTGGTCATCTTCCTCGCGCTCGTCTTCACGCCGCGCCGCCGGAGTCACCTAGTGCAG,8640 fluorescence intensity (a.u.)
21,TAGATTGATTGTTACTCCGTACATAACCTTGTCTTCTTCGCGGAGTCACCTAGTGCAG,8470 fluorescence intensity (a.u.)
22,TCGATCGTTGGTTAGCGCGTACGTACGTCTTGGTCATTTGCGGAGTCACCTAGTGCAG,12800 fluorescence intensity (a.u.)
23,CTGGCCGTCACCGTCGCTCTTGTCGCCATCGTATCACCGTCGGAGTCACCTAGTGCAG,11000 fluorescence intensity (a.u.)
24,CCGTATTCAAACTATCCGTATTTGTTTCCGCATCTGCTGACGGAGTCACCTAGTGCAG,9530 fluorescence intensity (a.u.)
25,CTAGCTGGTTGGATGACACTGATCATAGCTTGAACTTTACCGGAGTCACCTAGTGCAG,9500 fluorescence intensity (a.u.)
26,ATCCCCAGCCTCCAATACCGGTCCCGTGCTTGTTTTTCTTCGGAGTCACCTAGTGCAG,9470 fluorescence intensity (a.u.)
27,ATTGCAATAATTATTCTTCTCTTTAGCAGCTACCCCTTCACGGAGTCACCTAGTGCAG,8990 fluorescence intensity (a.u.)

# No new results follow: an excerpt of the list.
row,Sequence,binding signal
11,TTGTTGATTTGTGCCAGTTTTCTCCTATTTCAGTTAGTAGCGGAGTCACCTAGTGCAG,11400 fluorescence intensity (a.u.)
12,GCCAGCGACACCGCCGCCATCGTTCCCCACCGCCGCCATCCGGAGTCACCTAGTGCAG,13700 fluorescence intensity (a.u.)
13,CACCCGCCTCGTTCGCTTCCATCCTCTCCGCAGTCCGCACCGGAGTCACCTAGTGCAG,8870 fluorescence intensity (a.u.)
